Source: PubChem BioAssay AID1347076 (National Center for Advancing Translational Sciences (NCATS), 2019)
Hit rate of the full screen: of about 400,000 compounds, about 13,000 (3.2%) were called active. The shares of active, inactive and inconclusive entries below differ from those in the screen. Calls follow the shape of the dose curve; as a rule, active = well fitted cell-killing curve with a large enough effect; inconclusive = small, poorly fitted or top-dose-only effect, or effect the other way; inactive = flat fitted curve, though single readings scatter. Potencies of inconclusive entries are doubtful fits and often do not repeat.

assay: qHTS assay for MDR1-selective chemotherapeutics: Primary screen using the drug-selected MDR subline cells KB-V1; conditions: KB-V1 MDR cells viability, CellTiter-Glo, 72 h; activity change, negative = cytotoxicity: at 46.1 µM (top of the series); also: nearly all actives have a fitted effect of over 60% in size
In short: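 Cells of the MDR subline KB-V1 are plated, dosed with compound at multiple concentrations, and incubated 72 h at 37 degrees C; CellTiter-Glo is then added and luminescence read after 10 min.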
% is scaled to controls: 0 for no effect and ±100 for the full control effect; potency is read from the fitted curve at half-maximal effect.

| SMILES | Potency | activity change, negative = cytotoxicity |
| --- | --- | --- |
| O=C(CSc1ccc(-c2cccs2)nn1)NCCc1ccccc1 | inconclusive: 16.4 µM [cytotoxic, single point] | – |
| CCN(c1ccccc1)S(=O)(=O)c1cc(C(=O)Nc2ccc(Br)cc2)ccc1F | inconclusive: 7.31 µM [cytotoxic, partial curve, poor fit] | – |
| O=c1oc(-c2ccc(O)c(O)c2)cc2cc(O)cc(O)c12 | inconclusive: 9.2 µM [rising, partial curve, poor fit] | – |
| COc1ccccc1CN1C[C@@H]2C[C@@H](c3ccc(Cl)cc3)N3CCC[C@@]23C1=O | inconclusive: 5.17 µM [cytotoxic, partial curve, poor fit] | – |
| O=C(c1cc2c(s1)CCC2)N1CCN(c2ccccc2)CC1 | active: 20.6 µM | – |
| COc1ccc(CNC(=O)CN2CCSc3ccccc32)c(OC)c1 | inconclusive: 13 µM [cytotoxic, partial curve] | – |
| CSc1ccc(NS(=O)(=O)c2ccc(-n3cnnn3)cc2)cc1 | inconclusive: 20.6 µM [cytotoxic, single point] | – |
| CCS(=O)(=O)N1CCC(C(=O)NCCCN2CCN(c3ccccc3F)CC2)CC1 | – | inactive: -15.2% |
| Cc1ccccc1C(=O)Nc1nnc(-c2ccco2)o1 | inconclusive: 16.4 µM [cytotoxic, single point] | – |
| CC1CCc2c(C(=O)Nc3nccs3)csc2C1 (stereo not drawn) | inconclusive: 29.1 µM [cytotoxic, single point] | – |
| COc1ccc(-n2nc(C(=O)NCC(=O)Nc3cccc(Cl)c3)c3ccccc3c2=O)cc1OC | – | inactive: -18.5% |
| COc1ccc(-c2csc(C(NC(C)=O)c3cccc(F)c3)n2)cc1 (stereo not drawn) | inconclusive: 29.1 µM [cytotoxic, single point] | – |
| CC(=Nc1ccccc1)C1=C(O)C(Cc2ccc(O)cc2)NC1=O (stereo not drawn) | inconclusive: 2.91 µM [cytotoxic, partial curve, poor fit] | – |
| Clc1ccc(Cn2cc3c(n2)-c2cc4ccccc4n2C3)cc1 | – | inactive: 6.22% |
| O=S(=O)(c1ccccc1)c1nc(-c2ccc(F)cc2)oc1N1CCCCCC1 | inconclusive: 18.4 µM [cytotoxic, single point] | – |
| CCOC(=O)c1nnn(CC(=O)N2N=C(c3ccccc3)CC2c2ccccc2)c1C(=O)OCC (stereo not drawn) | inconclusive: 0.82 µM [cytotoxic, full curve] | – |
| O=C(COc1cccc(F)c1)Nc1nc(-c2ccccn2)cs1 | inconclusive: 2.31 µM [cytotoxic, full curve] | – |
| Cc1ccc(S(=O)(=O)N2CCN(C(=O)COC(=O)c3ccccc3OC(F)F)CC2)c(C)c1 | – | inactive: 5.41% |
| COc1ccc(Nc2ccc(S(=O)(=O)N3CCCCC3)cc2[N+](=O)[O-])cc1 | inconclusive: 6.51 µM [cytotoxic, partial curve] | – |
| CCOC(=O)c1c(Cl)c(C)nn1-c1nc(OC)cc(OC)n1 | active: 2.91 µM | – |
| Cc1ccc(Cl)c(Cn2cnc3c(cnn3C(C)(C)C)c2=O)c1F | inconclusive: 20.6 µM [cytotoxic, partial curve, poor fit] | – |
| CC(C)NC(=O)c1ccccc1NC(=O)C1COc2ccccc2O1 (stereo not drawn) | inconclusive: 20.6 µM [cytotoxic, single point] | – |

| SMILES | Potency | activity change, negative = cytotoxicity |
| --- | --- | --- |
| c1ccc(Nc2nc(N3CCCCC3)nc(N3CCCCC3)n2)cc1 | – | inactive: 3.95% |
| CCc1nnc(NC(=O)CSc2nc3c(c(=O)n2C)SC(C)C3)s1 (stereo not drawn) | – | inactive: -4.44% |
| CCOc1ccc(C(=O)CC(=O)C(=O)NCCc2ccc(OC)c(OC)c2)cc1 | active: 7.31 µM | – |
| O=C1CN(c2ccc(Br)cc2)C(=O)N1CC(=O)N1CCCc2ccccc21 | inconclusive: 29.1 µM [cytotoxic, single point] | – |
| COc1cccc(C(C)(O)c2nc(-c3cccs3)cs2)c1 (stereo not drawn) | inconclusive: 32.6 µM [cytotoxic, single point] | – |
| CC(C)CNc1nc(Oc2ccc(=O)n(-c3ccccc3)n2)nc(N2CCOCC2)n1 | inconclusive: 23.1 µM [cytotoxic, partial curve, poor fit] | – |
| CCOc1ccc2c(c1)C(C)=CC(C)(C)N2S(=O)(=O)c1ccc(NC(C)=O)cc1 | active: 1.3 µM | – |
| COc1cccc(NC(=O)c2c(C(=O)Nc3ccccc3)sc3nc(C)cc(=O)n23)c1 | – | inactive: 0% |
| CCc1nc2c(OCc3cccc(OC)c3)cccn2c1N(C)C(=O)c1ccc(OC)cc1 | – | inactive: -1.81% |
| CCN(CC)S(=O)(=O)c1ccc(OC)c(NS(=O)(=O)c2cccc(C(=O)O)c2)c1 | inconclusive: 16.4 µM [rising, single point] | – |
| CCOC(=O)COc1ccc(S(=O)(=O)NC2CC2)cc1 | inconclusive: 13 µM [rising, partial curve, poor fit] | – |
| COCCCN(C(=O)c1cc2c(s1)CCC2)c1c(N)n(Cc2ccccc2)c(=O)[nH]c1=O | inconclusive: 14.6 µM [rising, partial curve] | – |
| Cc1cc(C)c(C(=O)CSC2=NC(N)=C(C#N)C3(CCCCC3)C2C(N)=O)cc1C (stereo not drawn) | inconclusive: 16.4 µM [cytotoxic, single point] | – |
| COc1ccc(NC(=O)c2cc(OC)c(OC)c(OC)c2)cc1S(=O)(=O)N1CCCCC1 | inconclusive: 18.4 µM [cytotoxic, single point] | – |
| CCN(CC)C(=O)Cn1cc(S(=O)(=O)CC(=O)NCc2ccc(C)cc2)c2ccccc21 | – | inactive: -2.88% |
| Oc1ccc(C=NN=C2c3ccccc3-c3ccccc32)c(O)c1 | inconclusive: 18.4 µM [cytotoxic, single point] | – |
| CCN(CC)S(=O)(=O)c1ccc(N2CCOCC2)c(NC(=O)CCC2CCCCC2)c1 | – | inactive: -24.9% |
| Cc1ccc(S(=O)(=O)N2C[C@H]3C(=O)C[C@@H](c4ccccc4)N(S(=O)(=O)c4ccccc4C)[C@H]3C[C@H]2c2ccccc2)cc1 | – | inactive: -5.14% |
| Cc1ccc(/C=C/C(=O)Nc2cccc(S(=O)(=O)N3CCOCC3)c2)o1 | inconclusive: 23.1 µM [cytotoxic, single point] | – |
| CCCOc1ccc(C(=O)OCC(=O)NCCc2ccc(OCC)c(OCC)c2)cc1OC | inconclusive: 29.1 µM [cytotoxic, single point] | – |
| O=c1cc(CSc2nnc(C3CC3)n2Cc2ccccc2)nc2sccn12 | inconclusive: 3.66 µM [cytotoxic, partial curve, poor fit] | – |

Entries of single compounds as entered above.
Cc1ccc(/C=C/C(=O)Nc2cccc(S(=O)(=O)N3CCOCC3)c2)o1 as listed: Potency: inconclusive: 23.1 µM [cytotoxic, single point]
CCc1nnc(NC(=O)CSc2nc3c(c(=O)n2C)SC(C)C3)s1 (stereo not drawn) as listed: activity change, negative = cytotoxicity: inactive: -4.44%
